Measurements published in PMC7007292 (Oncotarget, 2020).
pIC50: −log10 of the molar value. Like-named read-outs stand apart in the source and are kept apart here.

Legend:
AGP-01 cells [1] = assay: Growth inhibition assay (resazurin); conditions: 2D culture, 72 h, value (± SD)
ACP-03 cells = assay: Growth inhibition assay (resazurin); type: cell-based; conditions: Homo sapiens, 2D culture, 72 h, value (± SD)
ACP-02 cells = assay: Growth inhibition assay (resazurin); type: cell-based; conditions: Homo sapiens, 2D culture, 72 h, value (± SD)
AGP-01 cells [2] = conditions: human
[3] = tested on: GC cell lines (AGP-01, ACP-02, ACP-03); assay: Growth inhibition assay, all GC cell lines; type: cell-based; conditions: human
Experimental: All cell lines were cultured in Dulbecco’s Modified Eagle Medium, high Glucose (4.5 g/L), with Sodium Pyruvate and L-glutamin] (DMEM, Lonza, UK), containing 10% foetal bovine serum (FBS) (Invitrogen, USA), 1% antibiotic with 100 IU/ml Penicillin and 100 ug/ml Streptomycin (Invitrogen, USA). The culture medium was changed 2 to 3 times a week and cells were passaged using trypsin/EDTA (Invitrogen, USA).
. Resarzurin was used for growth inhibition assays. Briefly, cells (300/well) were plated in 384-well flat-bottomed plates and cultured for 24 h. […] All the following in vitro experiments were performed on metastatic AGP-01 cells. For further validation of the biomarkers found in in vitro studies, expression analysis were performed on patient tumor samples from all GC histological types.

SMILES: CNC(=O)c1ccccc1Sc1ccc2c(/C=C/c3ccccn3)n[nH]c2c1 [Axitinib]
- pIC50 (AGP-01 cells [1]): < 4.70
- pIC50 (ACP-03 cells): < 4.70
- pIC50 (ACP-02 cells): < 4.70

SMILES: CN[C@@H]1C[C@H]2O[C@@](C)([C@@H]1OC)n1c3ccccc3c3c4c(c5c6ccccc6n2c5c31)C(=O)NC4 [Staurosporin]
- pIC50 (ACP-03 cells): 8.00
- pIC50 (AGP-01 cells [2]): 11.21
- pIC50 [3]: > 7.82
